# Residue numbers refer to the chain shown, from its start. These are yes or no findings as the source states them, for the method shown. Some binding calls cover weakened binding; strength is not graded here.
# Sequences of proteins named here, by UniProt entry; tags and fusion partners are left off.
# UniProt P16371: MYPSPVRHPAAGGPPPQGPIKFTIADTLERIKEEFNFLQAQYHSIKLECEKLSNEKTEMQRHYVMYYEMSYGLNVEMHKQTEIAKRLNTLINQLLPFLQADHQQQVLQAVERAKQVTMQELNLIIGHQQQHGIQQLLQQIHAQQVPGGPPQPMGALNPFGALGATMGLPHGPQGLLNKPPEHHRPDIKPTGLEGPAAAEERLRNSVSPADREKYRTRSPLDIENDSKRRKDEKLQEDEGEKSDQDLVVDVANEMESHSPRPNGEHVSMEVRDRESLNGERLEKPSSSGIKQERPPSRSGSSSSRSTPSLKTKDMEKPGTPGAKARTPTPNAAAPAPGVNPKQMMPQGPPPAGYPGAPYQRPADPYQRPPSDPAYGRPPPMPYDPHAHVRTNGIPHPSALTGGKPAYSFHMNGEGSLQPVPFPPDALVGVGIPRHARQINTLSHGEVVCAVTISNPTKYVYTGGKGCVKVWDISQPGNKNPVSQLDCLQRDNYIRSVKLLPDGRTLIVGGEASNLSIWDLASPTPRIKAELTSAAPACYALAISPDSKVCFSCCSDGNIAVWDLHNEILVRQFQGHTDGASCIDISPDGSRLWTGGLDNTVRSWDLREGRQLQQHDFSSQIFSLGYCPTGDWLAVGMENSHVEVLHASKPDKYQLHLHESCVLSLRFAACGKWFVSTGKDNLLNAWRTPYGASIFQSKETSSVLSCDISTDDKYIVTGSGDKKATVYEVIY
# UniProt O46036: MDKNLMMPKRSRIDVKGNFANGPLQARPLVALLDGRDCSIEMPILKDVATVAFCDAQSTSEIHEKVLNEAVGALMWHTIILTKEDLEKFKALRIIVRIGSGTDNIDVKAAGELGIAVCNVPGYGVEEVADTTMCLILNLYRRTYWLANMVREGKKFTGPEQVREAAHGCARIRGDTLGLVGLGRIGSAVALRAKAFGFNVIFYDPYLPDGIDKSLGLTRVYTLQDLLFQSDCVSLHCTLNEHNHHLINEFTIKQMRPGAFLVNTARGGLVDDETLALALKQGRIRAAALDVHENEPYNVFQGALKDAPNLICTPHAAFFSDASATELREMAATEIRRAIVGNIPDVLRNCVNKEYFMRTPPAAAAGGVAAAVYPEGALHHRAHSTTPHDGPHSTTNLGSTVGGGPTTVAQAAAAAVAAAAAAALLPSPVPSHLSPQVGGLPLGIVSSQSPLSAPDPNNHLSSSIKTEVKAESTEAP
# What was measured:
# [1] = target: T1, Hairless (H) wild type, full-length pEG-H bait (Drosophila melanogaster) (UniProt Q02308); experiment: two-hybrid
# T1 sequence: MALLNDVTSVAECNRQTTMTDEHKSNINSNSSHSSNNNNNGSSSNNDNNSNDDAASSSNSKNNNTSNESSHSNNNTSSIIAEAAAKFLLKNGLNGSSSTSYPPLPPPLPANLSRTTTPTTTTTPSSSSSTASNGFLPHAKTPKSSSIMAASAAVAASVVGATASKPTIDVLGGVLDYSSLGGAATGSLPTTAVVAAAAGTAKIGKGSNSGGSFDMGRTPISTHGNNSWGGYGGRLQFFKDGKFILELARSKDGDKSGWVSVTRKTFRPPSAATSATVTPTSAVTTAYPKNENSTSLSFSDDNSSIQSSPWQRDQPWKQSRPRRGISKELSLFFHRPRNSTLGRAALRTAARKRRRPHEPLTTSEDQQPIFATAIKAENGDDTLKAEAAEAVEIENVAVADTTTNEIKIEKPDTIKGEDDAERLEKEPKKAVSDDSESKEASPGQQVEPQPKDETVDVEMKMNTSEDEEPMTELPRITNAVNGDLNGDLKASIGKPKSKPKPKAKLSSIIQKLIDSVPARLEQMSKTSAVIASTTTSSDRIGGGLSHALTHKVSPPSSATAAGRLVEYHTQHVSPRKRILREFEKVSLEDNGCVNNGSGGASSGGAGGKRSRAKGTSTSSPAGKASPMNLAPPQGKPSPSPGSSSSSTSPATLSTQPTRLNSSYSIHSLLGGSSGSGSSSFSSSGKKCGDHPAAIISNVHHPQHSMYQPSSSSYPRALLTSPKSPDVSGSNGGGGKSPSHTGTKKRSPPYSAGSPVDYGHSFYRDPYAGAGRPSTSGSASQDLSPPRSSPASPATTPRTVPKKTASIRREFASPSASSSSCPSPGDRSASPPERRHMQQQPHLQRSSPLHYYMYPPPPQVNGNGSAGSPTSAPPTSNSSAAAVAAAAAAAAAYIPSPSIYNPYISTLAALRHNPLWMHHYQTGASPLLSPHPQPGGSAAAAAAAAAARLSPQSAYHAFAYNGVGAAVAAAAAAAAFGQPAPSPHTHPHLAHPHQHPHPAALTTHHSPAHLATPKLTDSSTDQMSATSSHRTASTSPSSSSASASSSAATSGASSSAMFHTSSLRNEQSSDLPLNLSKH
# [2] = target: T2, Hairless HLD mutant (L235D), full-length pEG-HLD bait (Drosophila melanogaster) (UniProt Q02308); experiment: two-hybrid
# T2 sequence: T1 sequence with L235D
# [3] = target: T3, Hairless HdNT mutant, full-length pEG-HdNT bait (Drosophila melanogaster) (UniProt Q02308); experiment: two-hybrid
# T3 sequence: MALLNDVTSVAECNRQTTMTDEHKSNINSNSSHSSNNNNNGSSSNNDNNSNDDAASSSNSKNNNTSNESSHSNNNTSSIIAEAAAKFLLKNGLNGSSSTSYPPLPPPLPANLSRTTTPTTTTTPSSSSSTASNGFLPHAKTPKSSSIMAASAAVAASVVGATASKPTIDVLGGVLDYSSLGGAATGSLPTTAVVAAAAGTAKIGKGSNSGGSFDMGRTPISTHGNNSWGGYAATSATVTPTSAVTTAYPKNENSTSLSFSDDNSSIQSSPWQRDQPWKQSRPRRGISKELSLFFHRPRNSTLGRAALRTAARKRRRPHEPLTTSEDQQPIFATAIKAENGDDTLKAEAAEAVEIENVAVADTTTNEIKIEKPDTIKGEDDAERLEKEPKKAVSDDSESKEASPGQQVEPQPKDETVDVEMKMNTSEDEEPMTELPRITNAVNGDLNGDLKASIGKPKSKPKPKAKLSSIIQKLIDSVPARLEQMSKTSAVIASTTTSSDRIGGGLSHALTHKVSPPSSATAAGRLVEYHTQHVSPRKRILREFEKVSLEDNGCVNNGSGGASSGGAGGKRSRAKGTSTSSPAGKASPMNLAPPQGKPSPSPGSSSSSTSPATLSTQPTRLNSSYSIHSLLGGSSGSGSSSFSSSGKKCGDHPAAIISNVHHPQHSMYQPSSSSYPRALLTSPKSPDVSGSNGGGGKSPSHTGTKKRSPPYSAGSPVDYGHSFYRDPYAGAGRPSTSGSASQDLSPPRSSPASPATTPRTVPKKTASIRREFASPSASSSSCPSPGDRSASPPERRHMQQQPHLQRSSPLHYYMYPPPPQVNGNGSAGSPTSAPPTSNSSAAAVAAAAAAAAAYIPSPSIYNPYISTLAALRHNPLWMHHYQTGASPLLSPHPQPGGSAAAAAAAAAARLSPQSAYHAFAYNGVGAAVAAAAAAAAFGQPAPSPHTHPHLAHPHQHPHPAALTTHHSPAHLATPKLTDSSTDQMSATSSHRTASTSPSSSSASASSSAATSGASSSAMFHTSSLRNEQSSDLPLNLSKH
# [4] = target: T1, Hairless (H) wild type, full-length pEG-H bait (Drosophila melanogaster); experiment: two-hybrid; Brent yeast two-hybrid; H wild type or H* mutants as LexA bait in pEG202; Su(H) as B42 prey in pJG4-5, Gro or CtBP as VP16 prey; lacZ reporter, blue colonies on X-Gal plates; empty vectors as control
# [5] = target: T2, Hairless HLD mutant (L235D), full-length pEG-HLD bait (Drosophila melanogaster); experiment: as above
# [6] = target: T3, Hairless HdNT mutant, full-length pEG-HdNT bait (Drosophila melanogaster); experiment: as above
binding [1],binding [2],binding [3],binding [4],binding [5],binding [6],Substance
binds,binds,binds,,,,"Groucho (Gro), VP16-Gro prey (from UniProt P16371 1-730)"
,,,binds,binds,binds,"C-terminal binding protein (CtBP), VP16-CtBP prey (from UniProt O46036 1-476)"

# Source: PMC7601384
